Reference: article PMC3125213
These are yes or no findings as the source states them, for the method shown. In cells and extracts the contact can be indirect. Here binding means that the protein was enriched with, or labelled near, the bait; the list need not be complete.

T1: TAR-RNA binding protein 2 (human) (UniProt Q15633)
T1 sequence: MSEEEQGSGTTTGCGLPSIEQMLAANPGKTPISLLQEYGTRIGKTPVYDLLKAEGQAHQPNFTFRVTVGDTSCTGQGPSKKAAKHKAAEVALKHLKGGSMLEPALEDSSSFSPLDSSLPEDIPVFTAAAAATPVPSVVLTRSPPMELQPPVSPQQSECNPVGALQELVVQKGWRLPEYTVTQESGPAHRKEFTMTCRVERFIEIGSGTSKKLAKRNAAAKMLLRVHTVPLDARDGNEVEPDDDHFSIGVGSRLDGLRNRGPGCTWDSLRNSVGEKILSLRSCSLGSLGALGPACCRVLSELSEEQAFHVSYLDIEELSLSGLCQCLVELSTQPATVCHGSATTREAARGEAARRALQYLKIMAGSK

B1: NOL1 (protein, UniProt P46087 1-812)
chain: MGRKLDPTKEKRGPGRKARKQKGAETELVRFLPAVSDENSKRLSSRARKRAAKRRLGSVEAPKTNKSPEAKPLPGKLPKGISAGAVQTAGKKGPQSLFNAPRGKKRPAPGSDEEEEEEDSEEDGMVNHGDLWGSEDDADTVDDYGADSNSEDEEEGEALLPIERAARKQKAREAAAGIQWSEEETEDEEEEKEVTPESGPPKVEEADGGLQINVDEEPFVLPPAGEMEQDAQAPDLQRVHKRIQDIVGILRDFGAQREEGRSRSEYLNRLKKDLAIYYSYGDFLLGKLMDLFPLSELVEFLEANEVPRPVTLRTNTLKTRRRDLAQALINRGVNLDPLGKWSKTGLVVYDSSVPIGATPEYLAGHYMLQGASSMLPVMALAPQEHERILDMCCAPGGKTSYMAQLMKNTGVILANDANAERLKSVVGNLHRLGVTNTIISHYDGRQFPKVVGGFDRVLLDAPCSGTGVISKDPAVKTNKDEKDILRCAHLQKELLLSAIDSVNATSKTGGYLVYCTCSITVEENEWVVDYALKKRNVRLVPTGLDFGQEGFTRFRERRFHPSLRSTRRFYPHTHNMDGFFIAKFKKFSNSIPQSQTGNSETATPTNVDLPQVIPKSENSSQPAKKAKGAAKTKQQLQKQQHPKKASFQKLNGISKGADSELSTVPSVTKTQASSSFQDSSQPAGKAEGIREPKVTGKLKQRSPKLQSSKKVAFLRQNAPPKGTDTQTPAVLSPSKTQATLKPKDHHQPLGRAKGVEKQQLPEQPFEKAAFQKQNDTPKGPQPPTVSPIRSSRPPPAKRKKSQSRGNSQLLLS
B2: ASPH (protein, UniProt Q12797 1-758)
chain: MAQRKNAKSSGNSSSSGSGSGSTSAGSSSPGARRETKHGGHKNGRKGGLSGTSFFTWFMVIALLGVWTSVAVVWFDLVDYEEVLGKLGIYDADGDGDFDVDDAKVLLGLKERSTSEPAVPPEEAEPHTEPEEQVPVEAEPQNIEDEAKEQIQSLLHEMVHAEHVEGEDLQQEDGPTGEPQQEDDEFLMATDVDDRFETLEPEVSHEETEHSYHVEETVSQDCNQDMEEMMSEQENPDSSEPVVEDERLHHDTDDVTYQVYEEQAVYEPLENEGIEITEVTAPPEDNPVEDSQVIVEEVSIFPVEEQQEVPPETNRKTDDPEQKAKVKKKKPKLLNKFDKTIKAELDAAEKLRKRGKIEEAVNAFKELVRKYPQSPRARYGKAQCEDDLAEKRRSNEVLRGAIETYQEVASLPDVPADLLKLSLKRRSDRQQFLGHMRGSLLTLQRLVQLFPNDTSLKNDLGVGYLLIGDNDNAKKVYEEVLSVTPNDGFAKVHYGFILKAQNKIAESIPYLKEGIESGDPGTDDGRFYFHLGDAMQRVGNKEAYKWYELGHKRGHFASVWQRSLYNVNGLKAQPWWTPKETGYTELVKSLERNWKLIRDEGLAVMDKAKGLFLPEDENLREKGDWSQFTLWQQGRRNENACKGAPKTCTLLEKFPETTGCRRGQIKYSIMHPGTHVWPHTGPTNCRLRMHLGLVIPKEGCKIRCANETKTWEEGKVLIFDDSFEHEVWQDASSFRLIFIVDVWHPELTPQQRRSLPAI

Target: T1, TAR-RNA binding protein 2 (human)
Assay: affinity purification with mass spectrometry; lysates of HeLa cells overexpressing Flag-TRBP immunoprecipitated with monoclonal anti-Flag agarose, eluted with 3X Flag polypeptides, SDS gel, fifteen Coomassie bands excised and analysed by LC-MS/MS; identifications of the mock-transfected sample subtracted

Row | Binder | binding
1 | B1 | binds
2 | B2 | binds
